# Where “and” joins values, the source holds several entries; their conditions need not be identical. Equal entries are not always repeated. Structures can show the parent of a compound that is named as a salt. ± gives the standard deviation of the averaged measurements. This is one part of the list. Part of the spread comes from offsets between plates or batches.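 Assay uses culture-activated primary human stellate myofibroblasts; lipid droplet recovery indicates inactivation. Measured: proportion of Hoechst-counted cells over a plate-specific Bodipy cutoff, duplicate wells, DMSO and nortriptyline as per-plate negative and positive controls. A hit scores, control-normalized, above the plate's top-tenth-percentile nortriptyline wells or ranks among its three best wells. Final well concentrations not reported.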
# Tested on: primary human hepatic stellate cells (donor 1)
# Test: percent Bodipy-positive cells; higher = more lipid droplet accumulation
# Settings: 48 h
# Method: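 Primary lipid accumulation screen in primary human hepatic stellate cell myofibroblasts (donor 1, passage 8) in 384-well plates. 100 nL of library compound was pin-transferred into 30 µL medium in duplicate, and cells were treated for 48 h. The 'Scaled' score combines distance from plate baseline, toxicity and reproducibility penalties, and is normalised to nortriptyline (positive) and DMSO (negative) controls on each plate. A hit is defined as scaled >0.85 or among the top 3 wells per plate.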
# [1] = library stock concentration: 10 mM
# [2] = library stock concentration: 1 mM
# [3] = library stock concentration: 80 uM
# [4] = library stock concentration: 400 uM
# [5] = library stock concentration: 2 mM
# [6] = library stock concentration: 3.33 mM
# [7] = library stock concentration: 6.9 mM
smiles,measurement,setting,value
Clc1cc(I)cc(Cl)c1NC1=NCCN1 [p-Iodoclonidine hydrochloride],percent Bodipy-positive cells,[1],49.9 ± 8.6%
Cn1c2cccc(=O)c-2nc2ccccc21 [Pyocyanin],percent Bodipy-positive cells,[2],40 ± 41%
CCCN(CCC)C1CCc2cccc(O)c2C1 (stereo not drawn) [8-Hydroxy-DPAT hydrobromide],percent Bodipy-positive cells,[1],14.2 ± 3.6%
CCCN(CCC)C1CCc2cccc(O)c2C1 (stereo not drawn),percent Bodipy-positive cells,[1],54.8 ± 18%
c1cncc(C2=NCCC2)c1 [Myosmine],percent Bodipy-positive cells,,6.16 ± 3.3%
CCCCC/C=C\C=C\[C@H](CCCCCCCC(=O)O)OO,percent Bodipy-positive cells,library stock concentration: 100 uM,11.3 ± 10%
N#CC(C#N)=Cc1ccc(O)cc1 [Tyrphostin-8],percent Bodipy-positive cells,library stock concentration: 29.4 mM,13.4 ± 1.5%
CC(C)(Cc1c[nH]c2ccc(Cl)cc12)NCCOc1ccccc1OCC1CC1,percent Bodipy-positive cells,[1],78 ± 1%
Cc1ccc(C[N+](C)(C)C)o1 [5-Methylfurmethiodide],percent Bodipy-positive cells,[1],6.52 ± 0.68%
O=c1[nH]c2ccccc2n1C1CCN(Cc2ccc(-c3[nH]c4cc5ncnc5cc4nc3-c3ccccc3)cc2)CC1 [Sigma A6730],percent Bodipy-positive cells,[3],8.9 ± 1.8%
same,percent Bodipy-positive cells,[4],7.79 ± 1.2%
same,percent Bodipy-positive cells,[5],19 ± 1.5%
same,percent Bodipy-positive cells,[1],73.7 ± 7.1%
c1cc(N2CCNCC2)c2cc[nH]c2c1 [4-(1-piperazinyl)-1H-Indole (hydrochloride)],percent Bodipy-positive cells,[2],10.1 ± 1.2%
CCCCCCCCCCCCCCCC(=O)OCC(COP(=O)([O-])OCC[N+](C)(C)C)OC(C)=O (stereo not drawn),percent Bodipy-positive cells,[2],7.9 ± 1.3%
Cc1nccc2c1[nH]c1ccccc12 [Harmane],percent Bodipy-positive cells,[1],78.9 ± 6.3%
Cc1nccc2c1[nH]c1ccccc12 [Harmane hydrochloride],percent Bodipy-positive cells,,36.8 ± 1.9%
CCCN1CCc2cccc3c2[C@H]1Cc1ccc(O)c(O)c1-3 [R(-)-Propylnorapomorphine hydrochloride],percent Bodipy-positive cells,[1],59.7 ± 11%
C[C@]12CC[C@@H]3c4ccc(OC(=O)N(CCCl)CCCl)cc4CC[C@H]3[C@@H]1CC[C@@H]2O,percent Bodipy-positive cells,[1],73.5 ± 5.6%
COc1ccc(CCN2CCC(Nc3nc4ccccc4n3Cc3ccc(F)cc3)CC2)cc1 [Astemizole] [listing 1 of 2 here],percent Bodipy-positive cells,[1],95.76 ± 0.67%
CC[C@@]1(O)C[C@H](O[C@H]2C[C@H](N(C)C)[C@H](O)[C@H](C)O2)c2c(cc3c(c2O)C(=O)c2c(O)ccc(O)c2C3=O)[C@H]1C(=O)OC [Pyrromycin],percent Bodipy-positive cells,[1],63.3 ± 9.8%
COC[C@@H]([C@H](O)[C@H](O)C(=O)NCC[C@H](C)c1nc(/C=C/C[C@@H]2O[C@]3(C[C@@H](O)[C@@H]2C)O[C@H]([C@H](C[C@H](O)[C@H](C)[C@H](O)[C@H](C)/C=C(C)/C(C)=C/C=C/C(C)=C\C#N)OC)[C@H](OP(=O)(O)O)C3(C)C)co1)N(C)C [Calyculin A],percent Bodipy-positive cells,library stock concentration: 500 uM,100%
CCN1C[C@]2(COC)[C@H](O)C[C@H](OC)[C@@]34[C@@H]5C[C@@]6(O)[C@H](OC(=O)c7ccccc7)[C@@H]5[C@@](OC(C)=O)([C@@H]([C@H](OC)[C@H]23)[C@@H]14)[C@@H](O)[C@@H]6OC [Aconitine],percent Bodipy-positive cells,,24 ± 2.8%
same,percent Bodipy-positive cells,library stock concentration: 3.1 mM,10.8 ± 3%
same,percent Bodipy-positive cells,library stock concentration: 7.7 mM,23.3 ± 15%
same,percent Bodipy-positive cells,[1],32.9% and 21.5%
"CC(N)Cc1cccc(C(F)(F)F)c1 (single isomer, unassigned; (+)) [(+)-Norfenfluramine hydrochloride]",percent Bodipy-positive cells,[1],60.8 ± 20%
c1ccc2c(c1)[I+]c1ccccc1-2 [Diphenyleneiodonium],percent Bodipy-positive cells,library stock concentration: 17.9 mM,100%
O=[N+]([O-])c1cc([As](=O)(O)O)ccc1O [Roxarsone],percent Bodipy-positive cells,,6.83 ± 4.2%
same,percent Bodipy-positive cells,library stock concentration: 7.6 mM,14.6 ± 2.5%
same,percent Bodipy-positive cells,[1],13.5 ± 3.2%
COc1ccc2c(c[n+](C)c3c4cc5c(cc4ccc23)OCO5)c1OC [Chelerythrine chloride],percent Bodipy-positive cells,[3],10.3 ± 3.2%
same,percent Bodipy-positive cells,[4],9.52 ± 2.6%
same,percent Bodipy-positive cells,[1],86.1% and 100%
COc1ccc2c(c[n+](C)c3c4cc5c(cc4ccc23)OCO5)c1OC [Chelerythrine Chloride],percent Bodipy-positive cells,[6],98.81 ± 0.56%
O=C(O)c1ccc2[nH]cc(CCCCN3CC=C(c4ccccc4)CC3)c2c1 [Carmoxirole hydrochloride],percent Bodipy-positive cells,[1],3.01 ± 0.64%
CNc1ccc2oc(C[C@H]3O[C@@]4(CC[C@H]3C)O[C@H]([C@H](C)C(=O)c3ccc[nH]3)[C@H](C)C[C@H]4C)nc2c1C(=O)O,percent Bodipy-positive cells,library stock concentration: 9.5 mM,76 ± 15%
CNc1ccc2oc(C[C@H]3O[C@@]4(CC[C@H]3C)O[C@H]([C@H](C)C(=O)c3ccc[nH]3)[C@H](C)C[C@H]4C)nc2c1C(=O)O [Calcimycin],percent Bodipy-positive cells,[1],95.01 ± 0.88%
CC(=O)O[C@@]12C[C@@H](C)[C@@]3(O)[C@@H](C=C(CO)C[C@]4(O)C(=O)C(C)=C[C@@H]34)[C@@H]1C2(C)C [Prostratin],percent Bodipy-positive cells,[2],64.3 ± 4%
CCN1C[C@]2(COC(=O)c3ccccc3N3C(=O)C[C@H](C)C3=O)CC[C@H](OC)[C@@]34[C@@H]5C[C@H]6[C@H](OC)[C@@H]5[C@](O)(C[C@@H]6OC)[C@](O)([C@@H](OC)[C@H]23)[C@@H]14 [Methyllycaconitine citrate],percent Bodipy-positive cells,[1],6.23 ± 0.87%
CCCCC/C=C\C/C=C\C/C=C\C/C=C\CCCC(=O)NC [Arachidonoyl-N-methyl amide],percent Bodipy-positive cells,[2],6.01 ± 0.28%
CC(N)Cc1c[nH]c2ccc(O)cc12 (stereo not drawn) [alpha-Methyl-5-hydroxytryptamine maleate],percent Bodipy-positive cells,[1],33.3 ± 11%
CC(N)Cc1c[nH]c2ccc(O)cc12 (stereo not drawn),percent Bodipy-positive cells,[1],7.46 ± 2%
CN(N=O)c1cc(O)ccc1O [Dephostatin],percent Bodipy-positive cells,[1],50.7 ± 5%
CN1C[C@H](CO)C=C2c3cccc4[nH]cc(c34)C[C@H]21 [Lysergol],percent Bodipy-positive cells,,33.6 ± 4.8%
Oc1ccc2c3c1O[C@H]1c4c(c5ccccc5n4Cc4ccccc4)C[C@@]4(O)C(C2)N(CC2CC2)CC[C@]314 [N-Benzylnaltrindole hydrochloride],percent Bodipy-positive cells,[1],100%
"BrC1C(Br)C(Br)C(Br)C(Br)C1Br (stereo not drawn) [1,2,3,4,5,6-Hexabromocyclohexane]",percent Bodipy-positive cells,[1],7.14 ± 1%
C[C@H]1CCC[C@H](O)CCCCCc2cc(O)cc(O)c2C(=O)O1,percent Bodipy-positive cells,[1],15.7 ± 13%
COc1ccc(CCN2CCC(Nc3nc4ccccc4n3Cc3ccc(F)cc3)CC2)cc1 [Astemizole] [listing 2 of 2 here],percent Bodipy-positive cells,library stock concentration: 4.4 mM,98.1% and 98.3%
same,percent Bodipy-positive cells,[1],97.6 ± 3.5%
CC(=O)Nc1ccc(OC[C@](C)(O)C(=O)Nc2ccc([N+](=O)[O-])c(C(F)(F)F)c2)cc1 [Andarine],percent Bodipy-positive cells,[6],11.4 ± 0.14%
same,percent Bodipy-positive cells,[1],22.4 ± 4.8%
CC(=O)O[C@H]1C[C@H](O[C@H]2[C@@H](O)C[C@H](O[C@H]3[C@@H](O)C[C@H](O[C@H]4CC[C@@]5(C)[C@H](CC[C@@H]6[C@@H]5C[C@@H](O)[C@]5(C)[C@@H](C7=CC(=O)OC7)CC[C@]65O)C4)O[C@@H]3C)O[C@@H]2C)O[C@H](C)[C@H]1O[C@@H]1O[C@H](CO)[C@@H](O)[C@H](O)[C@H]1O [Lanatoside C],percent Bodipy-positive cells,,75.1 ± 6.2%
CC(=O)O[C@H]1C[C@H](O[C@H]2[C@@H](O)C[C@H](O[C@H]3[C@@H](O)C[C@H](O[C@H]4CC[C@@]5(C)[C@H](CC[C@@H]6[C@@H]5C[C@@H](O)[C@]5(C)[C@@H](C7=CC(=O)OC7)CC[C@]65O)C4)O[C@@H]3C)O[C@@H]2C)O[C@H](C)[C@H]1O[C@@H]1O[C@H](CO)[C@@H](O)[C@H](O)[C@H]1O [Lanatoside c],percent Bodipy-positive cells,[5],89.2 ± 1.8%
same,percent Bodipy-positive cells,[1],92.8 ± 1.5%
Oc1cc2c(cc1O)[C@H]1c3ccccc3CN[C@@H]1CC2 (racemic) [Dihydrexidine hydrochloride],percent Bodipy-positive cells,[1],50.7 ± 0.79%
c1ccc(C2(c3ccccc3)CC2C2=NCCN2)cc1 (stereo not drawn) [Cibenzoline succinate],percent Bodipy-positive cells,[1],66.2 ± 3.7%
CCCN(CCC)C1CCc2ccc(O)cc2C1 (stereo not drawn) [(?)-7-Hydroxy-DPAT hydrobromide],percent Bodipy-positive cells,[1],58.8 ± 3.6%
CCCN(CCC)C1CCc2ccc(O)cc2C1 (stereo not drawn) [7-Hydroxy-DPAT hydrobromide],percent Bodipy-positive cells,[1],6.69 ± 0.77%
CCCN(CCC)C1CCc2ccc(O)cc2C1 (stereo not drawn) [R-(+)-7-Hydroxy-DPAT hydrobromide],percent Bodipy-positive cells,[1],35.9 ± 11%
CC1=C2[C@H]3OC(=O)[C@@H](C)[C@@H]3CC[C@@]2(C)C=CC1=O [alpha-Santonin],percent Bodipy-positive cells,,8.21 ± 3.3%
C/C=C1\C[C@@H](C)[C@](O)(CO)C(=O)OCC2=CCN3CC[C@@H](OC1=O)[C@@H]23 [Retrorsine],percent Bodipy-positive cells,,33.5 ± 3.9%
C[C@](O)(COc1ccc(C#N)cc1)C(=O)Nc1ccc(C#N)c(C(F)(F)F)c1,percent Bodipy-positive cells,[6],4.47 ± 0.085%
same,percent Bodipy-positive cells,[1],11.2 ± 2.8%
CCC(N)C(O)c1ccc(O)c(O)c1 (stereo not drawn) [Ethylnorepinephrine hydrochloride],percent Bodipy-positive cells,library stock concentration: 8.6 mM,5.68 ± 0.8%
same,percent Bodipy-positive cells,[1],33.8 ± 4.1%
c1cncc([C@@H]2CCCN2)c1 [Nornicotine],percent Bodipy-positive cells,[1],18.2 ± 3.5%
CC(C)n1cnc2c(C(=O)N[C@H]3CN4CCC3CC4)cc(Cl)cc21,percent Bodipy-positive cells,[1],38.6 ± 5.1%
Oc1cc(Cl)ccc1Oc1ccc(Cl)cc1Cl [Triclosan],percent Bodipy-positive cells,[7],56.1 ± 7.6%
same,percent Bodipy-positive cells,[1],59.3 ± 12%
CN1CCC[C@@H]1Cc1c[nH]c2ccc(Nc3ncccc3[N+](=O)[O-])cc12,percent Bodipy-positive cells,[1],41.8 ± 14%
CC1(C)C(C=C(Cl)Cl)C1C(=O)OC(C#N)c1cccc(Oc2ccccc2)c1 (stereo not drawn) [Cypermethrin],percent Bodipy-positive cells,library stock concentration: 12 mM,56.9 ± 6.9%
CC1(C)C(C=C(Cl)Cl)C1C(=O)OC(C#N)c1cccc(Oc2ccccc2)c1 (stereo not drawn),percent Bodipy-positive cells,[1],65.7 ± 8.1%
O=S(=O)(c1c(O)c(Cl)cc(Cl)c1Cl)c1c(O)c(Cl)cc(Cl)c1Cl [p38 MAP Kinase Inhibitor IV],percent Bodipy-positive cells,[6],14.9 ± 1.3%
C[N+]1([O-])[C@@H]2C[C@@H](OC(=O)[C@H](CO)c3ccccc3)C[C@H]1[C@@H]1O[C@@H]12 (stereo partly drawn) [Scopolamin-N-oxide hydrobromide],percent Bodipy-positive cells,,17.9 ± 3.9%
C[C@]12N[C@H](Cc3ccccc31)c1ccccc12 [Dizocilpine maleate],percent Bodipy-positive cells,,53.5 ± 13%
same,percent Bodipy-positive cells,library stock concentration: 5.9 mM,31.4 ± 3.9%
C[C@]12N[C@H](Cc3ccccc31)c1ccccc12 [MK-801 (Dizocilpine)],percent Bodipy-positive cells,[6],8.13 ± 2.2%
same,percent Bodipy-positive cells,[1],25 ± 14%
NCCc1ccccn1,percent Bodipy-positive cells,[1],7.03 ± 2.3%
CCCCC/C=C\C/C=C\C/C=C\C/C=C\CCCC(=O)N[C@H](C)COP(=O)(O)O [R-1 Methanandamide Phosphate],percent Bodipy-positive cells,[2],10.6 ± 1.8%
CO[C@@H]1C[C@@H](C[C@H]2CC[C@H](C)[C@H]([C@@H](C)C(=O)O)O2)O[C@]2(O[C@](C)([C@H]3CC[C@@](C)([C@@H]4O[C@@H]([C@H]5O[C@@](O)(CO)[C@H](C)C[C@@H]5C)C[C@@H]4C)O3)C[C@H]2C)[C@@H]1C [Nigericin],percent Bodipy-positive cells,[7],72.7 ± 12%
COC(=O)/C=C/C(=O)N[C@@H]1CC[C@@]2(O)[C@H]3Cc4ccc(O)c5c4[C@@]2(CCN3CC2CC2)[C@H]1O5,percent Bodipy-positive cells,[1],29.6 ± 3%
